According to the supplement of paper PMC5949888:
Most values lie at the floor of the assay. Slopes are relative: functional sequences can read slightly below zero.

The substances below were run on Saccharomyces cerevisiae PS128 hsf1 delta, HSF1(1-493) fusion (assay: growth estimate (transactivation domain function in HSF1 fusion, heat-shock survival) (a.u. (slope of normalised read count over time)); higher = stronger growth at 37°C, i.e. more transactivation activity). Settings: library: random library.
Method: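 Random 60-nt DNA library encoding peptides of up to 20 aa, fused to the C-terminus of yeast HSF1 residues 1-493 (C-terminal TAD deleted) and expressed from the native HSF1 promoter on a CEN plasmid in hsf1-deleted S. cerevisiae PS128. Cells were selected at 37°C on -trp 5-FOA plates for 0, 2, 4, 6 and 8 days and amplicons were sequenced. Growth estimate is the slope of a robust linear fit of total-sum-normalised read counts (normalised to the first time point) over time, using at least 2 replicates. Sequences are classed functional (TAD activity) above a threshold of -0.13, set from stop-codon control sequences.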
With ARLLVTITNKGPDRTSESDG the growth estimate was < -0.25. With ARLRHVPLGGLGWPSRTDFR the growth estimate was < -0.25. In the case of ARLTCEEPFDLLPGICSSNS, the growth estimate is reported as < -0.25. With ARNLVRHGP the growth estimate was < -0.25. With ARPALLLRAPLSAGSLQN the growth estimate was < -0.25. For ARPN, the growth estimate was < -0.25. For ARPT, the growth estimate was < -0.25. ARRATFGVGFQPSVTMCDHN was tested, and the growth estimate was < -0.25. With ARRRVLWRAAELKWCAFAFV the growth estimate was < -0.25. For ARSLYDRLEIGSFKLKAWVG, the growth estimate was < -0.25. In the case of ARSSRSSNPALCVWCSRSCT, the growth estimate is reported as < -0.25. With ARTFSGKFPSQSLPTLLSVA the growth estimate was 0.007. In the case of ARTG, the growth estimate is reported as < -0.25. ARTGMSHEARQPISGMLDIS was tested, and the growth estimate was < -0.25. ARTRQYAASDQRLLAHVIRV was tested, and the growth estimate was < -0.25. For ARTTSVRGLYPTASSAVTIT, the growth estimate was < -0.25. ARTYAGGSL was tested, and the growth estimate was < -0.25. ARVDNVRIVAPMAHVRHRHR was tested, and the growth estimate was < -0.25. ARVGMVVGRGTARGSIYVSV was tested, and the growth estimate was < -0.25. ARVGWDCYFR was tested, and the growth estimate was < -0.25. ARVNS was tested, and the growth estimate was < -0.25. In the case of ARVPFLSGAQNDGPTPKASL, the growth estimate is reported as < -0.25. In the case of ARVWATFTARISGG, the growth estimate is reported as < -0.25. For ARWAVDGPGCAHEMCHWVLV, the growth estimate was < -0.25. ARWVSSPILTGGCVIAGSTI was tested, and the growth estimate was < -0.25. For ASAAVPDLIVRI, the growth estimate was < -0.25. ASACPVSLIGRRHPRRQSNR was tested, and the growth estimate was < -0.25. For ASAGAVRAYLRSEHRGGSIH, the growth estimate was < -0.25. ASAKLVSLHNTSTVT was tested, and the growth estimate was < -0.25. ASANEAYAWGFSGDNETTRK was tested, and the growth estimate was < -0.25. ASAWSWRDTVYSPPGE was tested, and the growth estimate was < -0.25. With ASCCSRTG the growth estimate was < -0.25. In the case of ASCGEAQNAQKECPGRATNG, the growth estimate is reported as < -0.25. ASCMSQGVLTKSSRRQTVRV was tested, and the growth estimate was < -0.25. In the case of ASDHALGAQKGRDIMNYAKH, the growth estimate is reported as < -0.25. With ASDKYDNEGQRVAGSYKLDN the growth estimate was < -0.25. For ASEPRHSSTR, the growth estimate was < -0.25. With ASESFRVQGRKAGRHANSTP the growth estimate was < -0.25. ASFWVRRLPGVHELQRPTAH was tested, and the growth estimate was < -0.25. With ASG the growth estimate was < -0.25. For ASGAQPLVQADDQVASTAQG, the growth estimate was < -0.25. In the case of ASGGVTRIKYKAH, the growth estimate is reported as < -0.25. ASICTFRRVGTSLTHSLRLS was tested, and the growth estimate was < -0.25. For ASIPRGKRGTGTDVRLCYEA, the growth estimate was < -0.25. ASIRSFLPGLQSQERRGPVR was tested, and the growth estimate was < -0.25. ASIVSPLRSADHSGSGSN was tested, and the growth estimate was < -0.25. In the case of ASKCISSPRITRVRASMKGP, the growth estimate is reported as < -0.25. In the case of ASKFGHRIMDT, the growth estimate is reported as -0.229. With ASKNRQSD the growth estimate was < -0.25. In the case of ASKQSICKSAYERGKRHARE, the growth estimate is reported as < -0.25. With ASKRYPVRAYTTG the growth estimate was < -0.25. For ASLAIDRWE, the growth estimate was < -0.25. ASLCHACLDQPLAHDSLATL was tested, and the growth estimate was < -0.25. ASLGRFWATLMDLMPNRWHI was tested, and the growth estimate was < -0.25. With ASLSWK the growth estimate was < -0.25. With ASLTRQGTDRGTPC the growth estimate was < -0.25. With ASLVNEVGFFGFLPDHHMWV the growth estimate was 2.03. With ASMGR the growth estimate was < -0.25. For ASNGV, the growth estimate was < -0.25. Work on ASNSIAEWLLCRDRTEVPEQ yielded a growth estimate of 0.784. In the case of ASPWSAR, the growth estimate is reported as < -0.25. ASPYAGMTKGVSDIRKRICG was tested, and the growth estimate was < -0.25. ASQGCEPLRKL was tested, and the growth estimate was < -0.25. With ASREGAEIWLLGRCNLRRAD the growth estimate was < -0.25. With ASRSKNFVHCTGIFVQTAR the growth estimate was < -0.25. For ASRV, the growth estimate was < -0.25. For ASRWCGAIFAQRTFRD, the growth estimate was < -0.25. With ASRWDSNWLQIKRDLDRSDR the growth estimate was < -0.25. With ASS the growth estimate was < -0.25. With ASSFKRLLYYWES the growth estimate was < -0.25. In the case of ASSFLYGS, the growth estimate is reported as < -0.25. For ASSGDWVDAYSGLARGPSQG, the growth estimate was < -0.25. For ASSLHQTPRFAGFGVTYVGG, the growth estimate was < -0.25. With ASSLWEGALLTHS the growth estimate was < -0.25. For ASSMAYNMHIACRDSGMSGQ, the growth estimate was < -0.25. For ASSQASFGVIWPPAILFEEH, the growth estimate was < -0.25. ASTTSV was tested, and the growth estimate was < -0.25. In the case of ASTWGTLDLCGYMHIGLLKS, the growth estimate is reported as < -0.25. With ASVIRSTAPRYGFDRINYPL the growth estimate was < -0.25. With ASVISDGAGELGQQLACF the growth estimate was < -0.25. For ASWLEPRSGKRPFSWVFKLC, the growth estimate was < -0.25. ASYATCRGPG was tested, and the growth estimate was < -0.25. For ASYDLVM, the growth estimate was < -0.25. With ASYGQHNTE the growth estimate was < -0.25. For ASYHSTVGTYCSVLHEYGKE, the growth estimate was < -0.25. In the case of ATCYCKRDL, the growth estimate is reported as < -0.25. For ATDAPWSGSYLRAERAPS, the growth estimate was < -0.25. ATDHAPELF was tested, and the growth estimate was -0.232. For ATDKAY, the growth estimate was < -0.25. With ATDNFYNTGYSQARISLHIA the growth estimate was < -0.25. ATFHSRSRN was tested, and the growth estimate was < -0.25. For ATHRVRRRGTYGTTRTRWDT, the growth estimate was < -0.25. ATIGVDRWVS was tested, and the growth estimate was < -0.25.
